Earlier results, collected in patent publication US10662100B2, “Chlorination-UV process for decomposition and detoxification of microcystin-LR” (priority 2016, dated 2020).
At least one compound was matched to its structure with a doubt left.

Details: 254 nm; cited from earlier work

For CN1CC(=O)NC1=N [creatinine], the “molar absorptivity ε254” value is given as 1293 M⁻¹ cm⁻¹.
